Where a chain is given by its changes, count along the chain named. Results are given in words; binding and its absence hold for the method and conditions named. Some results given as binding are weak or reduced against the parent protein; the word gives no strength. For part of these data: Sequences can lack the tags named with a protein.
Key:
[1] = biological target: Mouse serum albumin (mouse) (UniProt P07724); assay: BLI (Octet RED96): AWT-P367 loaded on AHC biosensor, dipped into mouse albumin at 200 nM
[2] = biological target: Mouse serum albumin (mouse) (UniProt P07724); assay: Octet RED96 BLI, antibody on AHC biosensor, albumin at 200 nM
[3] = biological target: Mouse serum albumin (mouse) (UniProt P07724); assay: Octet BLI
[4] = biological target: Human serum albumin (human) (UniProt P02768); assay: BLI (Octet RED96): AWT-P494 loaded on AHC biosensor, dipped into human albumin at 200 nM
[5] = biological target: Cynomolgus monkey serum albumin (cynomolgus monkey) (UniProt A2V9Z4); assay: BLI (Octet RED96): AWT-P494 loaded on AHC biosensor, dipped into cyno albumin at 200 nM
[6] = biological target: Human serum albumin (human) (UniProt P02768); assay: Octet RED96 BLI, antibody on AHC biosensor, albumin at 200 nM
[7] = biological target: Cynomolgus monkey serum albumin (cynomolgus monkey) (UniProt A2V9Z4); assay: as above
[8] = biological target: Mouse serum albumin (mouse) (UniProt P07724); assay: BLI (Octet RED96): AWT-P494 loaded on AHC biosensor, dipped into mouse albumin at 200 nM
[9] = biological target: Human serum albumin (human) (UniProt P02768); assay: Octet BLI
[10] = biological target: Cynomolgus monkey serum albumin (cynomolgus monkey) (UniProt A2V9Z4); assay: Octet BLI
[11] = biological target: Mouse serum albumin (mouse) (UniProt P07724); assay: BLI, Fc fusion on protein A biosensor, albumin at 400, 200 and 100 nM
[12] = biological target: Human serum albumin (human) (UniProt P02768); assay: as above
[13] = biological target: Cynomolgus monkey serum albumin (cynomolgus monkey) (UniProt A2V9Z4); assay: as above
[14] = biological target: Mouse serum albumin (mouse) (UniProt P07724); assay: BLI, P367-IgG1 Fc on protein A biosensor, albumin at 400, 200 and 100 nM
[15] = biological target: Human serum albumin (human) (UniProt P02768); assay: as above
[16] = biological target: Cynomolgus monkey serum albumin (cynomolgus monkey) (UniProt A2V9Z4); assay: as above

Chains of the proteins cited; added tags and fusions are not shown. Residues count along the entry.
UniProt P07724, residues 25-608: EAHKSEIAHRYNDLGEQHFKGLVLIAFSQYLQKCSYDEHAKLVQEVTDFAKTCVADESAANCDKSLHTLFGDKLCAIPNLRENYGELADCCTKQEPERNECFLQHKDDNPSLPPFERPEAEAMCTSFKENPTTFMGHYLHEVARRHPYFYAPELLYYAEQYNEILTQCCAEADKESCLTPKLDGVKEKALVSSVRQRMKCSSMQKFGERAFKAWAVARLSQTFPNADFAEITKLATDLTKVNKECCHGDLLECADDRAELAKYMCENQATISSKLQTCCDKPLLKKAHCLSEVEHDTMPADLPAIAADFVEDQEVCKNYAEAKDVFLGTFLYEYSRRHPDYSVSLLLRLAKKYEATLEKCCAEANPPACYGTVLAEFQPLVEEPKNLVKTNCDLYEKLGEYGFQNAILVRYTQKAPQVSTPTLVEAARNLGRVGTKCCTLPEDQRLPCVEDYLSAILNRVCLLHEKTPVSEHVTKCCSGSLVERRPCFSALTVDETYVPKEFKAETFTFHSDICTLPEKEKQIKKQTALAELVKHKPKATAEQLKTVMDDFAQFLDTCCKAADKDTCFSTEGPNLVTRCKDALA
UniProt P02768, residues 25-609: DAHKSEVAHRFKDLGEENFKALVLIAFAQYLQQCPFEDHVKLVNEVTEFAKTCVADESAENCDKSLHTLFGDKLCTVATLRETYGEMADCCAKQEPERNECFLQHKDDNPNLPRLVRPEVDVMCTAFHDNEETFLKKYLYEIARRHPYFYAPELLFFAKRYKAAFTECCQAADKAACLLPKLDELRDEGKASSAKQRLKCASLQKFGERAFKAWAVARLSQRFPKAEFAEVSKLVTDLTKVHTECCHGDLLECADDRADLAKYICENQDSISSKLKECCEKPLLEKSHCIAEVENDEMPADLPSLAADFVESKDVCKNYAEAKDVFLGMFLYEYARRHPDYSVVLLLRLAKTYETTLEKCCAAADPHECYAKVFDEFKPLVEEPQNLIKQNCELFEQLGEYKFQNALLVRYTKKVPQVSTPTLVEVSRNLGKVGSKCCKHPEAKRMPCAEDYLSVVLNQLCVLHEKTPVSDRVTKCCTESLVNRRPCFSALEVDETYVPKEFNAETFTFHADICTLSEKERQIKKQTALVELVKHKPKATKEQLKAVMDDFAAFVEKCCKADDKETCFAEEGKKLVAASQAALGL
UniProt A2V9Z4, residues 25-608: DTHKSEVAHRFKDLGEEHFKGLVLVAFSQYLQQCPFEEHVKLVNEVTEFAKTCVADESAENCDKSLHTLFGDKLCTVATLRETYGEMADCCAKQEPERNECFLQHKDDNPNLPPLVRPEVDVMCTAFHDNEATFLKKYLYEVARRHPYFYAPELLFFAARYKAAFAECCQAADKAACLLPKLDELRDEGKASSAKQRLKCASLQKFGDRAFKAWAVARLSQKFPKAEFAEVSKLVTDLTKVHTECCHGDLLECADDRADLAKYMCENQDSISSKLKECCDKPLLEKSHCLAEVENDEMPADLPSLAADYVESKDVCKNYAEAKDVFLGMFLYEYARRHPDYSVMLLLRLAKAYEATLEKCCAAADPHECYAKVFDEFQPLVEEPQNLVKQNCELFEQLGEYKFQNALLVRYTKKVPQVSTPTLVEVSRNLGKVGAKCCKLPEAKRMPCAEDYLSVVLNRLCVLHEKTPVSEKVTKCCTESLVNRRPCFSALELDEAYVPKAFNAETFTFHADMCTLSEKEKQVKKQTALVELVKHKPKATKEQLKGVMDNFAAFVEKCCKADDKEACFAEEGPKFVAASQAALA

Measured: binding

B1: Anti-HSA single domain (VHH) antibody P367 (VHH)
VHH: QVQLVESGGGLVQPGGSLRLSCAASGSTWSINTLAWYRQAPGKQRDLVARISSGGSTHYADSVKGRFTVSRDNAENTLVLQMNSLKPEDTAVYYCYAQSTWYPPSWGQGTQVTVSS
binds: [1] | [2] | [3]

B2: Humanized anti-HSA antibody AWT-P494 (VHH)
VHH: B1 VHH with Q1E, H58Y, V69I, A74S, E75K, V79Y, K86R, P87A, Q111L
binds: [4] | [5] | [2] | [6] | [7] | [8] | [3] | [9] | [10]

B3: P367-IgG1 Fc fusion protein (Fc fusion, not shown: a dimerising Fc or GST)
chain: B1 VHH
binds: [11] | [12] | [13] | [14] | [15] | [16]

From patent US20210230242A1
